Measurements taken from PubChem BioAssay AID540276 (National Center for Advancing Translational Sciences (NCATS), 2011).
About 5,400 (1.8%) of roughly 300,000 compounds were called active. Inconclusive results, whose numbers are uncertain, are shown with a selection of clear calls. Calls follow the shape of the full dose curve; tested in HEK293 cells. Where the call is inconclusive, the potency comes from a doubtful curve fit.

Assay: qHTS for inhibitors of binding or entry into cells for Marburg Virus
Settings: Marburg virus pseudotyped entry inhibition, cell reporter; series mostly up to 37.8 µM
Potency is read from the fitted curve at half-maximal effect.

| SMILES | Potency |
| --- | --- |
| CN(C)/C=C/C(=O)c1cccc([N+](=O)[O-])c1 | inconclusive: 1 µM [inhibitor, partial curve, poor fit] |
| O=C(c1ccco1)N1CCN(CCCCN2C(=O)c3ccccc3C2=O)CC1 | inconclusive: 2.91 µM [activator, partial curve, poor fit] |
| Cc1ccc(Cl)cc1N1CCN(C(=O)C2CCN(S(C)(=O)=O)CC2)CC1 | inconclusive: 35.5 µM [inhibitor, single point] |
| Cc1ccc(C(=O)COC(=O)C2CCC2)cc1 | inconclusive: 5.62 µM [activator, partial curve] |
| CN(C)Cc1cc(CN(C)C)c(O)c(CCc2ccccc2)n1 | inactive |
| Cc1ccc(NS(=O)(=O)c2ccc(Cl)nc2)c(C)c1 | inactive |
| O=C1CCc2cc(S(=O)(=O)Nc3ccccc3F)cc3c2N1CCC3 | inconclusive: 2.82 µM [activator, single point] |
| Cn1cc(CN2CCN(c3cnccn3)CC2)c(-c2cccc(Cl)c2)n1 | inconclusive: 8.91 µM [inhibitor, partial curve, poor fit] |
| CC(=O)N(c1cc(C)ccc1C)c1ccccc1[N+](=O)[O-] | inconclusive: 12.6 µM [inhibitor, single point] |
| O=C(CN1CCCCC1)Nc1cccc(Cl)c1Cl | inactive |
| CC1(C)CC2(CC(c3ccccc3)c3ccc(O)cc3O2)NC(=S)N1 (stereo not given) | inconclusive: 35.5 µM [inhibitor, single point] |
| COc1cc(C(=O)N/N=C(\C)Cc2ccccc2)cc(OC)c1OC | inconclusive: 14.1 µM [inhibitor, single point] |
| O=C(O)c1c2c(nc3ccccc13)/C(=C/c1ccc(OC(F)F)cc1)CCC2 | inconclusive: 3.55 µM [activator, single point] |
| COc1cccc(N/C(=N/C(=S)Nc2ccc(C)cc2C)Nc2nc(C)cc(C)n2)c1 | inconclusive: 12.6 µM [inhibitor, partial curve, poor fit] |
| Cc1ccc(-c2csc3ncn(CC(=O)OC(C)C)c(=O)c23)cc1 | inconclusive: 20 µM [inhibitor, single point] |
| NC(=O)N/N=C/C=C/c1ccc(F)cc1 | inactive |
| CN(C(=O)Cn1c(=O)n(CCCS(=O)(=O)C2CCCCC2)c(=O)c2ccccc21)c1ccccc1 | inactive |
| O=C(N/N=C/c1c[nH]c2ccccc12)c1ccc(Br)cc1 | inconclusive: 12.6 µM [activator, partial curve, poor fit] |
| O=C(Nc1sc2c(c1C(=O)O)CCCC2)c1ccccc1Cl | inconclusive: 15.8 µM [inhibitor, partial curve, poor fit] |
| COc1ccc(OCCn2c(C)c(/C=N/n3cnnc3)c3ccccc32)cc1 | inactive |
| CCN1C(=O)S/C(=C/c2ccc(Sc3nc4ccccc4[nH]3)o2)C1=O | inconclusive: 0.447 µM [inhibitor, full curve, poor fit] |
| COc1ccc(C(CNC(=O)COc2ccc(C)cc2)N2CCCCC2)cc1 (stereo not given) | inactive |
| CNC(=O)CCSc1ccc(C)cc1 | inconclusive: 0.0146 µM [inhibitor, full curve, poor fit] |
| COCCCNCC1C(Oc2ccc(Cl)cc2)C(=O)N1c1ccccc1C (stereo not given) | inconclusive: 10 µM [inhibitor, partial curve, poor fit] |

| SMILES | Potency |
| --- | --- |
| CCOC(=O)c1sc(=NC(=O)c2ccccc2)n(C)c1C | inconclusive: 3.55 µM [activator, single point] |
| c1ccc(-c2nc(NCC3CCCO3)c3ccccc3n2)nc1 (stereo not given) | inconclusive: 16.4 µM [inhibitor, partial curve, poor fit] |
| Cc1ccc(S(=O)(=O)c2nc(-c3ccco3)oc2SCC(=O)NCC2CCCO2)cc1 (stereo not given) | inactive |
| CCCNC(=O)OC[C@H]1O[C@H](CCO/N=C(\C)CCC(=O)OC[C@H]2O[C@H](C#Cc3ccccc3)C=C[C@@H]2Oc2ccc(C)cc2)C=C[C@@H]1Oc1ccc(OC)cc1 | inactive |
| Cc1cccc(CN2CCC(C(=O)Nc3ccc(-n4nc(C)cc4C)cc3)CC2)n1 | inactive |
| Cc1ccccc1-n1ncc2c1CC(C)(C)CC2NC(=O)CCC(F)(F)F (stereo not given) | inactive |
| CCOC(=O)Cc1c(C)nc(SC)[nH]c1=O | inactive |
| Cc1nc(SCC(=O)Nc2cccnc2Cl)nc(C)c1C | inactive |
| C/C(N)=C(/C#N)C(=O)CSc1nnc(Nc2ccccc2)s1 | inconclusive: 3.55 µM [activator, single point] |
| COc1cccc(-c2onc3ccc(C(=O)/C=C/N(C)C)cc23)c1 | inactive |
| N#C/C(C(=O)Oc1ccccc1)=C1\C=CC=CN1 | inactive |
| Cc1ccc(S(=O)(=O)N2CCC(C(N)=O)CC2)c(C)c1C | inconclusive: 32.6 µM [activator, single point] |
| CCCCOc1c(Cl)cc(C(=O)N(Cc2ccc(C)o2)C2CCS(=O)(=O)C2)cc1Cl (stereo not given) | inconclusive: 35.5 µM [inhibitor, partial curve, poor fit] |
| CN(C)CCCN(C(=O)CCSc1ccccc1)c1nc2cc3c(cc2s1)OCO3 | inconclusive: 35.5 µM [inhibitor, single point] |
| CN(C(=O)c1cc(-c2ccccc2O)on1)c1ccccc1 | inconclusive: 22.4 µM [activator, single point] |
| CCOc1ccc(N(CC(=O)NCc2ccco2)S(=O)(=O)c2ccc(OC)c(OC)c2)cc1 | inactive |
| CC(C)CN1C(=O)C(=O)N(CC(=O)NC(C)CCc2ccccc2)C1=O (stereo not given) | inactive |
| CCOc1ccccc1N1CCN(C(=O)CCCc2nc3ccccc3s2)CC1 | inconclusive: 2.51 µM [activator, single point] |
| Cc1ccc(C(C)C)c(OCC(=O)Nc2c(C(=O)c3ccccc3)oc3ccccc23)c1 | inactive |
| O=C(c1cnccn1)N1CCN(S(=O)(=O)c2cccc(Cl)c2)CC1 | inconclusive: 0.316 µM [inhibitor, partial curve, poor fit] |
| CCN(CC)C(=O)c1ccc2nc3ccccc3nc2c1 | inactive |
| Cc1ccc(CN2C3CCCC2CC(NC(=S)NCc2ccccc2)C3)cc1 (stereo not given) | inconclusive: 1.12 µM [inhibitor, partial curve, poor fit] |
| CCc1ccccc1NC(=O)CN(c1ccc(OC)cc1OC)S(=O)(=O)c1ccccc1[N+](=O)[O-] | inconclusive: 15.8 µM [inhibitor, single point] |
| CC1=C(C(=O)N2CCc3ccccc32)C2(CCC(C)CC2)OC1=O (stereo not given) | inactive |

| SMILES | Potency |
| --- | --- |
| CC(=O)N1[C@H](Cc2ccccc2)C=C[C@]1(C)C(=O)NCc1ccc(C)o1 | inactive |
| O=C(/C=C/c1cccs1)c1ccc(NC(=O)c2ccccc2F)cc1 | inconclusive: 14.1 µM [activator, single point] |
| COc1ccc(CCN2C(=O)C3C4CCC(C4=C(C)C)C3C2=O)cc1OC (stereo not given) | inconclusive: 1.41 µM [activator, partial curve] |
| Cc1cc2nc(-c3ccc(SCC(=O)Nc4nccs4)nc3)[nH]c2cc1C | inactive |
| FC(F)(F)c1ccccc1-n1ccnc1 | inconclusive: 0.0398 µM [inhibitor, full curve] |
| COc1ccc(N2C(=O)C(=O)/C(=C(/O)c3ccc(C)cc3)C2c2cccnc2)cc1 (stereo not given) | inconclusive: 0.794 µM [activator, full curve, poor fit] |
| O=C(O)c1cccc(Cn2c(Cl)c(/C=N/Nc3ccccc3)sc2=O)c1 | inconclusive: 20 µM [inhibitor, partial curve, poor fit] |
| Cc1ccc(C2CN(c3ccccc3)CC2C(=O)c2ccc(F)cc2)cc1 (stereo not given) | inconclusive: 11.2 µM [inhibitor, single point] |
| Cc1c(C(=S)Nc2ccccc2)cnn1-c1ccccc1 | inactive |
| COc1ccccc1-c1nc(S(=O)(=O)c2ccc(Cl)cc2)c(N2CCCCCC2)o1 | inactive |
| COc1ccc2oc(=O)cc(CN(C)Cc3ccccc3)c2c1 | inconclusive: 3.55 µM [inhibitor, partial curve, poor fit] |
| CC1=C(C#N)C(c2cccnc2)C2=C(N1)c1ccccc1C2=O (stereo not given) | inactive |
| COc1ccc(CCNC(=O)COC(=O)Cc2ccccc2)cc1 | inconclusive: 31.6 µM [activator, single point] |
| Cc1ccccc1-c1nn(-c2ccc(F)cc2F)cc1CNCCCO | inconclusive: 35.5 µM [inhibitor, single point] |
| N#Cc1cc(Oc2ccc3ccccc3c2)c(-n2nnc3ccccc32)cc1C#N | inconclusive: 10.3 µM [inhibitor, partial curve, poor fit] |
| Cc1cccc(NCC(=O)N/N=C\c2cccc(Oc3ccccc3)c2)c1 | inconclusive: 29.1 µM [inhibitor, single point] |
| CCc1ccc(-c2cc(C)no2)cc1S(=O)(=O)N1CCN(c2ccccc2)CC1 | inconclusive: 6.31 µM [inhibitor, full curve, poor fit] |
| CCC(=O)NC(c1ccccc1OC)c1ccc2cccnc2c1O (stereo not given) | active: 4.61 µM |
| OCC1(CC2CCCCO2)CCN(Cc2ccccc2-c2ccco2)CC1 (stereo not given) | inconclusive: 7.94 µM [inhibitor, partial curve, poor fit] |
| O=C(NCc1cccs1)C1CCN(C(=O)NCc2ccccc2)CC1 | inconclusive: 0.398 µM [activator, full curve, poor fit] |
| CC(C)C(C)(C#N)NC(=O)COC(=O)C1CCN(S(=O)(=O)c2ccc3c(c2)OCCO3)CC1 (stereo not given) | inconclusive: 35.5 µM [inhibitor, single point] |
| COc1ccccc1C(=O)Nc1ccc2c(c1)nc1n2CCN(Cc2ccccc2)C1 | inconclusive: 3.98 µM [inhibitor, full curve, poor fit] |

5 entries out of the list, sorted by SMILES length, high to low.

| SMILES | Potency |
| --- | --- |
| CC(=O)N1[C@H](Cc2ccccc2)C=C[C@]1(C)C(=O)NCc1ccc(C)o1 | inactive |
| O=C(O)c1cccc(Cn2c(Cl)c(/C=N/Nc3ccccc3)sc2=O)c1 | inconclusive: 20 µM [inhibitor, partial curve, poor fit] |
| CC1=C(C#N)C(c2cccnc2)C2=C(N1)c1ccccc1C2=O (stereo not given) | inactive |
| O=C(NCc1cccs1)C1CCN(C(=O)NCc2ccccc2)CC1 | inconclusive: 0.398 µM [activator, full curve, poor fit] |
| CCC(=O)NC(c1ccccc1OC)c1ccc2cccnc2c1O (stereo not given) | active: 4.61 µM |
